# Measured values from PubChem BioAssay AID1794844 (National Center for Advancing Translational Sciences (NCATS), 2023).
# Amino acid sequences for entries named in this document (tags omitted). A change or cut given only in a name is not applied to a line headed by its entry.
# UniProt C7C422: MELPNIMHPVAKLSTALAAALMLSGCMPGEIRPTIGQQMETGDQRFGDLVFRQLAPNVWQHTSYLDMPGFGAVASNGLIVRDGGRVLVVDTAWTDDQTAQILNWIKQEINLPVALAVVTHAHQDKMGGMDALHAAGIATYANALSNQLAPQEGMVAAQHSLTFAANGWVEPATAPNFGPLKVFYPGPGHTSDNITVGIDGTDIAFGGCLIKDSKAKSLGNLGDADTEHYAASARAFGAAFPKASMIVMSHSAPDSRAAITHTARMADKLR
# The whole screen tested about 2,800 compounds, of which fewer than 10 were called active. Roughly 7% stayed inconclusive and do not appear here. The call rests on the fitted dose curve; in most records, active means well fitted inhibition curve with a large enough effect; inconclusive means small, poorly fitted or top-dose-only effect; inactive means no such curve, though single readings can be large or run the other way. The list shows a part of the results.
# Target: Metallo-beta-lactamase type 2 (Klebsiella pneumoniae) (UniProt C7C422)
# Assay: qHTS to identify inhibitors of the New Delhi Metallo-beta-lactamase (NDM): Nitrocefin screen against the machine-based learning selections. Further: % of control where 0% means no effect.
# Conditions: NDM-1 enzyme, nitrocefin hydrolysis, absorbance 485 nm; activity, negative = inhibition: at the top concentration
# Outline: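 NDM-1 (2 nM final) in 50 mM HEPES pH 7.0, 1 uM Zn2SO4, 0.01% Tween20 was preincubated with compounds for >30 min. Nitrocefin (16.7 uM final) was read at 485 nm after 15 min, and meropenem (50 uM final) at 300 nm after 30 min.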
row,SMILES,"activity, negative = inhibition"
1,CC(C)(C)CC(=O)N1CCC(C(NC(=O)c2ccccc2Cl)C(=O)N2CCCCC2)CC1 (stereo unspecified),inactive: -13.5%
2,O=C(O)C[C@@H]1CCN(C(=O)C2CCCCC2)C[C@@H]1CCN1CCN(c2ccccn2)CC1,inactive: -8.03%
3,O=c1c2nc(-c3cccc(O)c3)ccc2ncn1Cc1ccccn1,inactive: -12.6% [at 57.5 µM]
4,CC1(C(=O)NCc2cccnc2)CCCc2cnc(Nc3ccccc3)nc21 (stereo unspecified),inactive: 2.44% [at 57.5 µM]
5,Cc1ccc2c(n1)N(C)[C@H](CO)CCN(Cc1ccc(Cl)cc1)C2,inactive: 5% [at 57.5 µM]
6,O=c1c2nc(NCc3ccccc3)ccc2ncn1Cc1ccccc1,inactive: -4.47% [at 57.5 µM]
7,CCc1ccc(CNC(=O)c2ccc3c(c2)N(C)C2CCCCN2C3=O)cc1 (stereo unspecified),inactive: -2.68%
8,CCCC1(CO)CCCN(Cc2ccc(OCC(=O)N3CCCC3)cc2)C1 (stereo unspecified),inactive: 2.88%
9,COC(=O)N1CCCC(c2nn(-c3ccc(OC)cc3)c(=O)[nH]2)C1 (stereo unspecified),inactive: 0.846% [at 57.5 µM]
10,COc1ccc(Cl)cc1-c1ccc2c(c1)C(=O)N1CCN(C(=O)CO)C[C@@H]1C(=O)N2,inactive: -4.97% [at 57.5 µM]
11,Cc1ccc(S(=O)(=O)N(C)CC2CCOC2)cc1F (stereo unspecified),inactive: -2.16%
12,Cc1ccc2nc(C3CCN(Cc4ccc(-c5cccs5)cc4)CC3)[nH]c(=O)c2c1,inactive: -0.194%
13,CC(=O)NC[C@@H]1C=C(C)[C@H](CC(=O)N(C)Cc2ccccc2)C[C@H]1C(C)C,inactive: -10.3% [at 57.5 µM]
14,c1c(CC2CCCCC2)nnn1[C@H]1CO[C@H]2[C@@H]1OC[C@@H]2NCC1CCCCC1,inactive: 2.36% [at 57.5 µM]
15,CN1[C@@H](CCC(=O)N2CC[C@@H](O)C2)CNC(=O)[C@@H]2[C@H]1CCN2C1CCOCC1,inactive: -2.72% [at 57.5 µM]
16,Cc1ccc2nc(C3CCCN(Cc4ccccc4)C3)[nH]c(=O)c2c1 (stereo unspecified),inactive: 0.6% [at 57.5 µM]
17,CC(=O)Nc1ccc(CN2CC3(C2)C(=O)N(Cc2ccc(C)o2)C(=O)[C@@H]2C[C@@H](O)CN23)cc1,inactive: -2.61%
18,CCNC(=O)O[C@@H]1CO[C@H]2[C@@H]1OC[C@@H]2NC(=S)Nc1ccc(N(C)C)cc1,inactive: 0.306% [at 57.5 µM]
19,CN(Cc1ccccc1)Cc1cn([C@H]2CO[C@H]3[C@@H]2OC[C@@H]3NC(=O)CCC(=O)O)nn1,inactive: -6.98% [at 57.5 µM]
20,Cc1noc([C@@H](C)NS(=O)(=O)c2ccccc2)c1C(=O)O,inactive: 23.1% [at 57.5 µM]
21,COc1ccc(C(=O)N2CCCC(O)(CN3CCCC3)C2)cc1Cl (stereo unspecified),inactive: -1.26%
22,COc1ccc(C(=O)N2CCC(N3CCCCCC3=O)CC2)cc1,inactive: 8.26% [at 57.5 µM]
23,Cc1cc(Cn2cc3c4c(cccc42)[C@H](CC(C)C)N[C@H](C(=O)NCCN2CCCC2)C3)no1,inactive: 1.83%

row,SMILES,"activity, negative = inhibition"
1,O=c1n(-c2ccc([N+](=O)[O-])cc2)nc2n1CCN(Cc1cccc3ccccc13)C2,inactive: 0.445%
2,O=C(CN1CC2CC(C1)[C@H]1CCCC(=O)N1C2)NCc1cc(F)ccc1F (stereo partly specified),inactive: 3.54%
3,COC(=O)c1ccc2nc(CO[C@H]3CN(Cc4cnn(C)c4)C[C@H]3F)[nH]c2c1,inactive: 2.86% [at 57.5 µM]
4,O=C(N[C@H]1CCN2C(=O)c3ccccc3NC(=O)[C@@H]2C1)c1ccccc1,inactive: 0.709% [at 57.5 µM]
5,Cc1noc2c(N3CC(O)C3)cc(-c3ccsc3)nc12,inactive: 5.82% [at 76.7 µM]
6,CSCC(=O)N1CC[C@H](NC(=O)Nc2ccc(F)cc2F)[C@H]1C(=O)N[C@@H](Cc1cccs1)C(N)=O,inactive: -2.75%
7,OC1(c2nc(Nc3ccc(Oc4ccccc4)cc3)n[nH]2)CCOCC1,inactive: -7.8% [at 57.5 µM]
8,Nc1cncc(-c2nccc(N3CCC(O)CC3)n2)c1,inactive: 11%
9,Cc1cc(-c2cc3c(cn2)CN(Cc2ccc4[nH]ccc4c2)CCN3)ccn1,inactive: 12.5% [at 57.5 µM]
10,CN(C(=O)c1cc2ccccc2n1C)C1CCCN(C2Cc3ccccc3C2)C1 (stereo unspecified),inactive: 2.32%
11,Cc1noc(C2CC3(CCN(C(=O)C4CCC4)CC3)CN2C)n1 (stereo unspecified),inactive: 0.282%
12,COc1nccnc1NC1CCN(C(=O)c2cccs2)CC1,inactive: -1.2%
13,COc1cccc(NC(=O)N[C@H]2[C@H](O)[C@@H](N3CCN(C)CC3)[C@@H]3OC[C@H]2O3)c1,inactive: -3.13% [at 57.5 µM]
14,COC(=O)[C@H](Cc1ccc(OC)cc1)NC(=O)[C@H]1CN(S(=O)(=O)c2ccccc2)CCN1C(=O)c1cccs1,inactive: 1.39%
15,O=C(CN1C(=O)NC(c2ccccc2Cl)C2=C1COC2=O)Nc1ccc(F)c(Cl)c1 (stereo unspecified),inactive: 9.81%
16,CC(=O)N1CCN(CC[C@H]2CN(C(=O)c3ccnc(Cl)c3)CC[C@H]2CC(=O)O)CC1,inactive: -1.75%
17,CS(=O)(=O)N1CCCCC1CCNc1nccc(-c2cccnc2)n1 (stereo unspecified),inactive: 7.62%
18,O=C(N[C@H]1CC[C@H](Nc2nccc(-c3cccnc3)n2)C1)c1ccc(O)cc1,inactive: 2.61%
19,COc1ccc(-c2cnc3[nH]cc(CC(=O)NCc4cnccn4)c3c2)cc1,inactive: 23.3% [at 57.5 µM]
20,COc1ccc2c(c1)CCN=C2C[C@H]1CN(C(=O)c2cccc(F)c2)CC[C@H]1CC(=O)O,inactive: -3.19%
21,CCN(CC)Cc1cnc2c(C(=O)N3CCC(N(C)C)C3)cnn2c1 (stereo unspecified),inactive: -3.8%
22,Cn1c(CN2CCOCC2)nnc1C1CCN(c2ncccc2C#N)CC1,inactive: 1.8%
23,Cc1ccc(NC(=O)O[C@@H]2CO[C@H]3[C@@H]2OC[C@@H]3Nc2nccc(-c3ccccc3)n2)cc1,inactive: 5.94% [at 57.5 µM]

# In a second layout: entries from further up.
row	SMILES	activity, negative = inhibition
7	OC1(c2nc(Nc3ccc(Oc4ccccc4)cc3)n[nH]2)CCOCC1	inactive: -7.8% [at 57.5 µM]
8	Nc1cncc(-c2nccc(N3CCC(O)CC3)n2)c1	inactive: 11%
10	CN(C(=O)c1cc2ccccc2n1C)C1CCCN(C2Cc3ccccc3C2)C1 (stereo unspecified)	inactive: 2.32%
12	COc1nccnc1NC1CCN(C(=O)c2cccs2)CC1	inactive: -1.2%

# (continued)

row,SMILES,"activity, negative = inhibition"
1,CC(=O)N1CCC(NC2(Cc3cc(CN(C)Cc4ccccc4)on3)COC2)CC1,inactive: 2.01% [at 57.5 µM]
2,COc1cccc(CN2CCN(c3ncccc3Cl)CC2CCO)c1 (stereo unspecified),inactive: -1.7%
3,COc1cccc(CNC(=O)c2cc(-c3ccncc3)cn2C)c1OC,inactive: 9.61%
4,Cc1ccc(-c2cc(N3CCC(CNC(=O)c4cc(C5CC5)[nH]n4)CC3)n[nH]2)cc1,inactive: 0.771%
5,CCNC(=O)N1CCC[C@@H](O)[C@H](NC(=O)c2ccc(OCCOC)cc2)C1,inactive: -3% [at 57.5 µM]
6,CCc1ccc(N2CC(c3noc(-c4cc(Cl)ccc4F)n3)CC2=O)cc1 (stereo unspecified),inactive: -1.56%
7,O=C(c1ccccc1)N1CCn2c(nn(-c3ccc([N+](=O)[O-])cc3)c2=O)C1,inactive: -2.13%
8,COC(=O)c1cn([C@H]2CO[C@H]3[C@@H]2OC[C@@H]3NC(=O)c2ccc(N(C)C)cc2)nn1,inactive: -9.19% [at 57.5 µM]
9,CC1(C(=O)NCCc2ccccn2)COCc2cnc(Nc3ccccc3)nc21 (stereo unspecified),inactive: 3.36% [at 57.5 µM]
10,Cc1nc(C(C)C)sc1CNC(=O)C1CCC(=O)N(C2CCCC2)C1 (stereo unspecified),inactive: 6.85%
11,CCc1cc(=O)n(CC(=O)Nc2ccc(C(F)(F)F)cc2)c(N2CCOCC2)n1,inactive: -0.257%
12,Cc1ccc(C(=O)NC[C@@H]2CC[C@H]3C[C@@H]2C3(C)C)cc1,inactive: 6.23% [at 57.5 µM]
13,COC(=O)c1cn([C@H]2CO[C@H]3[C@@H]2OC[C@H]3OC(=O)Nc2cccc(C#N)c2)nn1,inactive: -0.317% [at 57.5 µM]
14,CN1Cc2ncnc(NCCc3ccc(F)cc3)c2CN(c2ccc(Cl)cc2)C1=O,inactive: 0.2%
15,CC1(CNc2ccccc2)COc2ccc(C(=O)NCCc3cnc[nH]3)cc2N1 (stereo unspecified),inactive: -5.79% [at 57.5 µM]
16,CN(Cc1ccccc1)C(=O)C[C@@H]1CCNC[C@@H]1Cc1cc(-c2ccc(C(C)(C)C)cc2)on1,inactive: -1.28%
17,CC(=O)Nc1ccc(S(=O)(=O)NC[C@@H]2C=C(C)[C@H](CC(=O)NCCN(C)C)C[C@H]2C(C)C)cc1,inactive: -10.7%
18,N#Cc1ccc(C(=O)N2C[C@@H]3C[C@H](C2)c2ccc(-c4ccc(OC(F)(F)F)cc4)c(=O)n2C3)cc1,inactive: -0.0396%
19,COC[C@@H]1CN(C(=O)c2ccc(OC)nc2)C[C@H]1c1nc(C2CC2)no1,inactive: 2.51%
20,NC(=O)Cc1c[nH]c2ncc(-c3ccc4c(c3)OCO4)cc12,inactive: 28.7% [at 57.5 µM]
21,O=C(NC(c1ccccc1)c1ccccc1)c1cnc2c(c1)N(Cc1ccccc1)CCC2,inactive: -9.04% [at 57.5 µM]
22,COCCNc1nc2cc(C(=O)N3CC[C@H](CO)[C@@H](O)C3)ccc2n1C,inactive: 6.3%
23,CCn1ncc(NC(=O)Cn2ncc3cc(-c4ccc(C(=O)N(C)C)cc4)ccc32)n1,inactive: 24.8%

# Reformatted: entries from further up.
row	SMILES	activity, negative = inhibition
15	CC1(CNc2ccccc2)COc2ccc(C(=O)NCCc3cnc[nH]3)cc2N1 (stereo unspecified)	inactive: -5.79% [at 57.5 µM]
16	CN(Cc1ccccc1)C(=O)C[C@@H]1CCNC[C@@H]1Cc1cc(-c2ccc(C(C)(C)C)cc2)on1	inactive: -1.28%

# Next results follow.

row,SMILES,"activity, negative = inhibition"
1,CC(C)CN[C@H]1CO[C@H]2[C@@H]1OC[C@@H]2Nc1nccc(C(C)(C)C)n1,inactive: -0.932% [at 57.5 µM]
2,CCN(CC)C(=O)[C@@H]1C[C@H](N)CN1C(=O)c1cc2ccccc2n(C)c1=O,inactive: 0.851%
3,CCOc1ccccc1-c1nc(C2CC(=O)N(c3ccc(C)cc3)C2)no1 (stereo unspecified),inactive: -0.249%
4,CN(Cc1ccccc1)Cc1cc(C[C@@H]2CC[C@H](O)[C@@H](CNC(=O)Nc3ccccc3)O2)no1,inactive: 2.05%
5,COc1ccc([C@@H](NC(=O)Cc2c(F)cccc2Cl)C2CC(O)C2)cn1 (stereo partly specified),inactive: 0.586%
6,CCCCCC(=O)N[C@H]1C[C@@H](Cc2cc(COc3ccccc3)on2)C1(C)C,inactive: 2.63% [at 57.5 µM]
7,OC(c1nc(Nc2ccc(Oc3ccccc3)cc2)n[nH]1)C1CC1 (stereo unspecified),inactive: -1.1% [at 57.5 µM]
8,CCCc1cc(C(=O)N[C@@H]2COCC[C@H]2Oc2ccc(C(=O)O)cc2)n[nH]1,inactive: -3.33%
9,NC(=O)C1CCC(=O)N1C1CCNCC1 (stereo unspecified),inactive: -0.167%
10,O=C(O)c1cccc(CN2CCN(c3ccc4nccn4n3)CC2)n1,inactive: -14.8%
11,CCCCCC(=O)Nc1nc2c(s1)C[C@@H]1[C@](C)(CO)[C@H](O)CC[C@@]1(C)[C@@H]2CC(=O)NCc1ccccc1,inactive: 2.07%
12,Cn1nc(C(=O)Nc2ccc3c(c2)C(=O)N2CCC[C@H]2C(=O)N3)c2ccccc21,inactive: 1.02%
13,CC(C)C1CN(C(=O)c2ccccc2-c2ncc[nH]2)CCC(=O)N1CC1CC1 (stereo unspecified),inactive: 5.2%
14,CC[C@H]1CN(C(C)=O)CC[C@H]1CC(=O)Nc1ccccc1,inactive: -10.5% [at 76.7 µM]
15,CC1=C[C@@H](CNC(=O)c2ccc(F)cc2)[C@H](C(C)C)C[C@H]1CC(=O)N1CCN(C)CC1,inactive: 8.05% [at 57.5 µM]
16,O=C1Nc2ccc(/C=C/c3ccccc3)cc2C(=O)N2CC[C@H](NS(=O)(=O)c3cccs3)[C@@H]12,inactive: 4.39%
17,COc1cncc([C@@H](NC(=O)Cc2cn3ccsc3n2)C2CC(O)C2)c1 (stereo partly specified),inactive: -2.36%
18,CN(C)S(=O)(=O)CCCN1CC[C@@H](NC(=O)c2ccccn2)[C@H](O)C1,inactive: -0.714%
19,O=C(Nc1ccc(Oc2ccccc2)cc1)N[C@H]1CO[C@H]2[C@@H]1OC[C@H]2OC(=O)Nc1cccc(C(F)(F)F)c1,inactive: 242%
20,Cc1ccc(S(=O)(=O)N[C@H]2CO[C@H]3[C@@H]2OC[C@H]3OCC(N)=O)cc1,inactive: -3.58% [at 57.5 µM]
21,CCOC(=O)c1cccc(NC(=O)O[C@@H]2CO[C@H]3[C@@H]2OC[C@@H]3n2nnnc2SC2CCCC2)c1,inactive: 6.42%
22,COc1ccc(CN2C=C(C(=O)OCc3noc(-c4cccc(OC)c4)n3)C(C)=NS2(=O)=O)cc1,inactive: 9.65%
